Results as given in doi:10.1101/2021.03.24.436638.
These are yes or no findings as the source states them, for the method shown. In cells and extracts the contact can be indirect. A result given as binding can be weak or reduced; the word gives no strength.

Target: calnexin (simian (endogenous in COS7))
Assay: co-IP

- binding: binds
B1: neuronal glycine transporter GlyT2, wild type (protein, UniProt P58295 1-799)
chain: MDCSAPKEMNKPPTNILEATVPGHRDSPRAPRTSPEQDLPAAAPAAAVQPPRVPRSASTGAQTFQSADARACEAQRPGVGFCKLSSPQAQATSAALRDLSEGHSAQANPPSGAAGAGNALHCKIPALRGPEEDENVSVGKGTLEHNNTPAVGWVNMSQSTVVLGTDGIASVLPGSVATTTIPEDEQGDENKARGNWSSKLDFILSMVGYAVGLGNVWRFPYLAFQNGGGAFLIPYLMMLALAGLPIFFLEVSLGQFASQGPVSVWKAIPALQGCGIAMLIISVLIAIYYNVIICYTLFYLFASFVSVLPWGSCNNPWNTPECKDKTKLLLDSCVIGDHPKIQIKNSTFCMTAYPNLTMVNFTSQANKTFVSGSEEYFKYFVLKISAGIEYPGEIRWPLAFCLFLAWVIVYASLAKGIKTSGKVVYFTATFPYVVLVILLIRGVTLPGAGAGIWYFITPKWEKLTDATVWKDAATQIFFSLSAAWGGLITLSSYNKFHNNCYRDTLIVTCTNSATSIFAGFVIFSVIGFMANERKVNIENVADQGPGIAFVVYPEALTRLPLSPFWAIIFFLMLLTLGLDTMFATIETIVTSISDEFPKYLRTHKPVFTLGCCICFFIMGFPMITQGGIYMFQLVDTYAASYALVIIAIFELVGISYVYGLQRFCEDIEMMIGFQPNIFWKVCWAFVTPTILTFILCFSFYQWEPMTYGSYRYPNWSMVLGWLMLACSVIWIPIMFVIKMYLAPGRFIERLKLVCSPQPDWGPFLAQHRGERYKNMIDPLGTSSLGLKLPVKDLELGTQC
